This is an account of results in article PMC10119315.

Protein sequences, listed by entry. Tags and fused reporters are not part of them. Residues count along the entry.
UniProt P01137, residues 30-390: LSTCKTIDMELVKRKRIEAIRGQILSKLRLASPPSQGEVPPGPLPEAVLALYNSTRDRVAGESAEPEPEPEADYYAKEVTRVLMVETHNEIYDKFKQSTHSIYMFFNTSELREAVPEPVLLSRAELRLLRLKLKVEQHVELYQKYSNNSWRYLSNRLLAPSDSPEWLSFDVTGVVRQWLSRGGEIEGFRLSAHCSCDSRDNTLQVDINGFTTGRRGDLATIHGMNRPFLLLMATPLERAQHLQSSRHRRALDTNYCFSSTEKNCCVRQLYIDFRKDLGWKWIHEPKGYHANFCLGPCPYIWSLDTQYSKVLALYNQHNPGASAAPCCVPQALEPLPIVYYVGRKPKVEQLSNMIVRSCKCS

Results are given in words; binding and its absence hold for the method and conditions named. Binding seen in cells or lysates may run through a third protein. Some binding calls cover weakened binding; strength is not graded here. Tags and fused reporters may be left off the sequences shown.

The target in the assay is LAP-TGF-β1-GFP (human) (UniProt P01137). Nature of the assay: co-IP; HEK293T cells co-transfected, lysed 48 h later in Tris-HCl pH 8.0, 150 mM NaCl, 1% Triton X-100 buffer; antibody against FLAG or GFP or control IgG overnight at 4 °C, Protein A/G agarose; Western blot; also with co-expressed AGGF1-GFP or AGGF1-RDD^del-GFP, or purified AGGF1 or AGGF1-RDD^del for 24 h (wild-type AGGF1 enhanced the co-precipitation, the mutant did not). In general terms: Immunoblotting shows a protein as a band on a membrane.

B1: Integrin α7-FLAG (receptor, UniProt Q13683-7 34-1137)
chain: FNLDVMGALRKEGEPGSLFGFSVALHRQLQPRPQSWLLVGAPQALALPGQQANRTGGLFACPLSLEETDCYRVDIDQGADMQKESKENQWLGVSVRSQGPGGKIVTCAHRYEARQRVDQILETRDMIGRCFVLSQDLAIRDELDGGEWKFCEGRPQGHEQFGFCQQGTAAAFSPDSHYLLFGAPGTYNWKGLLFVTNIDSSDPDQLVYKTLDPADRLPGPAGDLALNSYLGFSIDSGKGLVRAEELSFVAGAPRANHKGAVVILRKDSASRLVPEVMLSGERLTSGFGYSLAVADLNSDGWPDLIVGAPYFFERQEELGGAVYVYLNQGGHWAGISPLRLCGSPDSMFGISLAVLGDLNQDGFPDIAVGAPFDGDGKVFIYHGSSLGVVAKPSQVLEGEAVGIKSFGYSLSGSLDMDGNQYPDLLVGSLADTAVLFRARPILHVSHEVSIAPRSIDLEQPNCAGGHSVCVDLRVCFSYIAVPSSYSPTVALDYVLDADTDRRLRGQVPRVTFLSRNLEEPKHQASGTVWLKHQHDRVCGDAMFQLQENVKDKLRAIVVTLSYSLQTPRLRRQAPGQGLPPVAPILNAHQPSTQRAEIHFLKQGCGEDKICQSNLQLVRARFCTRVSDTEFQPLPMDVDGTTALFALSGQPVIGLELMVTNLPSDPAQPQADGDDAHEAQLLVMLPDSLHYSGVRALDPAEKPLCLSNENASHVECELGNPMKRGAQVTFYLILSTSGISIETTELEVELLLATISEQELHPVSARARVFIELPLSIAGMAIPQQLFFSGVVRGERAMQSERDVGSKVKYEVTVSNQGQSLRTLGSAFLNIMWPHEIANGKWLLYPMQVELEGGQGPGQKGLCSPRPNILHLDVDSRDRRRRELEPPEQQEPGERQEPSMSWWPVSSAEKKKNITLDCARGTANCVVFSCPLYSFDRAAVLHVWGRLWNSTFLEEYSAVKSLEVIVRANITVKSSIKNLMLRDASTVIPVMVYLDPMAVVAEGVPWWVILLAVLAGLLVLALLVLLLWKMGFFKRAKHPEATVPQYHAVKIPREDRQQFKEEKTGTILRNNWGSPRREGPDAHPILAADGHPELGPDGHPGPGTA
For B1, the binding entry was “binds”.
